Values quoted from earlier work as cited in patent US8518928B2, “Therapeutic compounds” (Rutgers, The State University of New Jersey, priority 2006, dated 2013).
For at least one compound, name, drawing or mass did not settle the structure.

Tested on: K62 leukemia cells
Conditions: cited from earlier work

SMILES: Cc1oc2nc1-c1nc(co1)-c1nc(co1)-c1nc(co1)-c1nc(co1)-c1nc(co1)C1=NC(CS1)c1nc-2c(C)o1 (stereo not shown) [Telomestatin]
- effect on plating efficiency: suppress the plating efficiency
